The results in this text go back to patent publication US11225605B2, “Polymerizable liquid crystal compound, method for producing polymerizable liquid crystal compound, polymerizable liquid crystal composition, optically anisotropic film, optical film, polarizing plate, and image display device” (FUJIFILM Corporation, priority 2017, dated 2022).

The series can be described thus: Formation of optically anisotropic film and retardation measurement (KOBRA-21ADH). The settings on record: for Re (450)/ Re (550): optical film; for Re (450): retardation of optical film at wavelength 450 nm; for Re (550): retardation of optical film at wavelength 550 nm; for Formation of optical film / optically anisotropic film: result in words. On the procedure:
A polymerizable composition (a coating liquid for an optically anisotropic film) having the following composition was prepared and applied through spin coating onto on a glass substrate having a polyimide alignment film (SE-150 manufactured by Nissan Chemical Industries, Ltd.) which had been subjected to a rubbing treatment. The coated film was subjected to an alignment treatment at a temperature shown in Table 5 below to form a liquid crystal layer. Thereafter, the liquid crystal layer was cooled to an exposure temperature, described in Table 5 below and subjected to alignment fixation by ultraviolet irradiation of 1,000 mJ/cm^2 to form an optically anisotropic film, thereby obtaining an optical film for wavelength dispersion measurement.
With regard to the prepared optical film, a retardation value (Re (450)) at a wavelength of 450 nm and a retardation value (Re (550)) at a wavelength of 550 nm were measured using an automatic birefringence meter (KOBRA-21ADH, manufactured by Oji Scientific Instruments Co., Ltd.), and Re (450)/Re (550) was calculated.

Entries after “also recorded” stand apart in the source; their conditions may differ.

Consider `C=CC(=O)OCC(C)(C)COC(=O)CCC(=O)OCCc1ccc(OC(=O)C2CCC(C(=O)Oc3ccc(OC(=O)C4CCC(C5CCC(CC)CC5)CC4)c4c3SC(=C(C#N)C#N)S4)CC2)cc1` (centres unmarked) [Compound A-1], for which the “Re (450)/ Re (550)” value is listed as 0.71, the “Re (450)” value is 102 and the “Re (550)” value is recorded as 143.

Turning to `C=CC(=O)OCC(C)(C)COC(=O)CCC(=O)OCCc1ccc(OC(=O)C2CCC(C(=O)Oc3c(C)cc(OC(=O)C4CCC(C5CCC(CC)CC5)CC4)c4c3SC(=C(C#N)C#N)S4)CC2)cc1` (centres unmarked) [Compound B-1], the “Re (450)/ Re (550)” value turned out to be 0.73, the “Re (450)” value turned out to be 96 and the “Re (550)” value was found to be 132.

`C=CC(=O)OCC(C)(C)COC(=O)CCC(=O)OCCc1ccc(OC(=O)C2CCC(C(=O)Oc3cc(C(C)(C)C)c(OC(=O)C4CCC(C(=O)Oc5ccc(CCOC(=O)CCC(=O)OCC(C)(C)COC(=O)C=C)cc5)CC4)c4c3SC(=C(C#N)C#N)S4)CC2)cc1` (centres unmarked) [Compound C-1]: the “Formation of optical film / optically anisotropic film” value (listed as Comparative Example 3) is listed as “alignment failure; also recorded: not possible to form an optically anisotropic film”.

Turning to `C=CC(=O)OCCOC(=O)CCC(=O)OCCc1ccc(OC(=O)C2CCC(C(=O)Oc3cc(C(C)(C)C)c(OC(=O)C4CCC(C(=O)Oc5ccc(CCOC(=O)CCC(=O)OCCOC(=O)C=C)cc5)CC4)c4c3SC(=C(C#N)C#N)S4)CC2)cc1` [Compound D-1], the “Re (450)/ Re (550)” value worked out at 0.85, the “Re (450)” value is recorded as 73 and the “Re (550)” value is on record as 86.

Take `C=CC(=O)OCCCCCCOc1ccc(OC(=O)C2CCC(C(=O)Oc3cc(C(C)(C)C)c(OC(=O)C4CCC(C(=O)Oc5ccc(OCCCCCCOC(=O)C=C)cc5)CC4)c4c3SC(=C(C#N)C#N)S4)CC2)cc1` (centres unmarked) [Compound E-1]: the “Re (450)/ Re (550)” value is reported as 0.85, the “Re (450)” value was 123 and the “Re (550)” value is given as 145.

As for `CCC1CCC(C2CCC(C(=O)Oc3cc(C(C)(C)C)c(OC(=O)C4CCC(C5CCC(CC)CC5)CC4)c4c3SC(=C(C#N)C#N)S4)CC2)CC1` (centres unmarked) [Compound I-1f], the “Formation of optical film / optically anisotropic film” value (listed as Comparative Example 6) is “crystals precipitated; also recorded: not possible to form an optically anisotropic film”.

Take `C=CC(=O)OCCOC(=O)CCC(=O)OCCc1ccc(OC(=O)C2CCC(C(=O)Oc3c(C(C)(C)C)cc(OC(=O)C4CCC(C5CCC(CC)CC5)CC4)c4c3SC(=C(C#N)C#N)S4)CC2)cc1` (centres unmarked) [Compound I-2]: the “Re (450)/ Re (550)” value is 0.75, the “Re (450)” value turned out to be 91 and the “Re (550)” value came to 121.

`C=CC(=O)OCCCCCCOc1ccc(OC(=O)C2CCC(C(=O)Oc3c(C(C)(C)C)cc(OC(=O)C4CCC(C5CCC(CC)CC5)CC4)c4c3SC(=C(C#N)C#N)S4)CC2)cc1` (centres unmarked) [Compound I-3]: the “Re (450)/ Re (550)” value is 0.77, the “Re (450)” value came to 110 and the “Re (550)” value came out at 143.

For the molecule `C=CC(=O)OCC(C)(C)COC(=O)CCC(=O)OCCc1ccc(OC(=O)C2CCC(C(=O)Oc3cc(C(C)(C)C)c(OC(=O)C4CCC(C5CCC(CC)CC5)CC4)c4c3SC(=C(C#N)C#N)S4)CC2)cc1` (centres unmarked) [Compound I-13], the “Re (450)/ Re (550)” value came to 0.74, the “Re (450)” value stood at 112 and the “Re (550)” value came out at 151.
